The text below walks through data of patent US12729225B2, “Non-canonical SWI/SNF complex and uses thereof” (Dana-Farber Cancer Institute, Inc., priority 2018, dated 2026).

The test system of this data set is mSWI/SNF complexes. Briefly: mSWI/SNF complex purification with HA-tagged baits and mass spectrometry (peptide counts). Also noted: species or system human.
Setting [1] is: 293_HA-BRD7: HA-BRD7 bait purification, total peptide count per co-purified protein.
Setting [2] is: 293_HA-BRD7: HA-BRD7 bait purification, unique peptide count per co-purified protein.
Setting [3] is: 293_HA-DPF2 purification, total peptides.
[4] abbreviates: 293_HA-DPF2 purification, unique peptides.
Where [5] appears, read: total peptide count of the co-purified protein, 293_HA-BRD9 (HA-BRD9 bait, mass spectrometry), Table 3b.
The mark [6] stands for this setting: unique peptide count of the co-purified protein, 293_HA-BRD9 (HA-BRD9 bait, mass spectrometry), Table 3b.
Where [7] appears, read: 293_HA-BRD7 bait purification, mass spectrometry, total peptides per co-purified protein.
[8] abbreviates: 293_HA-BRD7 bait purification, mass spectrometry, unique peptides per co-purified protein.

B1: NSF (protein, UniProt P46459 1-744, looked up)
Vesicle-fusing ATPase: MAGRSMQAARCPTDELSLTNCAVVNEKDFQSGQHVIVRTSPNHRYTFTLKTHPSVVPGSIAFSLPQRKWAGLSIGQEIEVSLYTFDKAKQCIGTMTIEIDFLQKKSIDSNPYDTDKMAAEFIQQFNNQAFSVGQQLVFSFNEKLFGLLVKDIEAMDPSILKGEPATGKRQKIEVGLVVGNSQVAFEKAENSSLNLIGKAKTKENRQSIINPDWNFEKMGIGGLDKEFSDIFRRAFASRVFPPEIVEQMGCKHVKGILLYGPPGCGKTLLARQIGKMLNAREPKVVNGPEILNKYVGESEANIRKLFADAEEEQRRLGANSGLHIIIFDEIDAICKQRGSMAGSTGVHDTVVNQLLSKIDGVEQLNNILVIGMTNRPDLIDEALLRPGRLEVKMEIGLPDEKGRLQILHIHTARMRGHQLLSADVDIKELAVETKNFSGAELEGLVRAAQSTAMNRHIKASTKVEVDMEKAESLQVTRGDFLASLENDIKPAFGTNQEDYASYIMNGIIKWGDPVTRVLDDGELLVQQTKNSDRTPLVSVLLEGPPHSGKTALAAKIAEESNFPFIKICSPDKMIGFSETAKCQAMKKIFDDAYKSQLSCVVVDDIERLLDYVPIGPRFSNLVLQALLVLLKKAPPQGRKLLIIGTTSRKDVLQEMEMLNAFSTTIHVPNIATGEQLLEALELLGNFKDKERTTIAQQVKGKKVWIGIKKLLMLIEMSLQMDPEYRVRKFLALLREEGASPLDFD
For B1, the Total reads like this: under setting [1], 6; under setting [3], 2; under setting [5], 1. Further, the Unique reads like this: under setting [2], 6; under setting [4], 1; under setting [6], 1.

B2: Igh-6 (protein, UniProt P01872 1-454, looked up)
Immunoglobulin heavy constant …: SQSFPNVFPLVSCESPLSDKNLVAMGCLARDFLPSTISFTWNYQNNTEVIQGIRTFPTLRTGGKYLATSQVLLSPKSILEGSDEYLVCKIHYGGKNRDLHVPIPAVAEMNPNVNVFVPPRDGFSGPAPRKSKLICEATNFTPKPITVSWLKDGKLVESGFTTDPVTIENKGSTPQTYKVISTLTISEIDWLNLNVYTCRVDHRGLTFLKNVSSTCAASPSTDILTFTIPPSFADIFLSKSANLTCLVSNLATYETLNISWASQSGEPLETKIKIMESHPNGTFSAKGVASVCVEDWNNRKEFVCTVTHRDLPSPQKKFISKPNEVHKHPPAVYLLPPAREQLNLRESATVTCLVKGFSPADISVQWLQRGQLLPQEKYVTSAPMPEPGAPGFYFTHSILTVTEEEWNSGETYTCVVGHEALPHLVTERTVDKSTGKPTLYNVSLIMSDTGGTCY
For B2, the Total by setting is: under setting [7], 2; under setting [5], 1. Also, the Unique runs as follows: under setting [8], 2; under setting [6], 1.

B3: NXF1 (protein, UniProt Q9UBU9 2-619, looked up)
Nuclear RNA export factor 1: ADEGKSYSEHDDERVNFPQRKKKGRGPFRWKYGEGNRRSGRGGSGIRSSRLEEDDGDVAMSDAQDGPRVRYNPYTTRPNRRGDTWHDRDRIHVTVRRDRAPPERGGAGTSQDGTSKNWFKITIPYGRKYDKAWLLSMIQSKCSVPFTPIEFHYENTRAQFFVEDASTASALKAVNYKILDRENRRISIIINSSAPPHTILNELKPEQVEQLKLIMSKRYDGSQQALDLKGLRSDPDLVAQNIDVVLNRRSCMAATLRIIEENIPELLSLNLSNNRLYRLDDMSSIVQKAPNLKILNLSGNELKSERELDKIKGLKLEELWLDGNSLCDTFRDQSTYISAIRERFPKLLRLDGHELPPPIAFDVEAPTTLPPCKGSYFGTENLKSLVLHFLQQYYAIYDSGDRQGLLDAYHDGACCSLSIPFIPQNPARSSLAEYFKDSRNVKKLKDPTLRFRLLKHTRLNVVAFLNELPKTQHDVNSFVVDISAQTSTLLCFSVNGVFKEVDGKSRDSLRAFTRTFIAVPASNSGLCIVNDELFVRNASSEEIQRAFAMPAPTPSSSPVPTLSPEQQEMLQAFSTQSGMNLEWSQKCLQDNNWDYTRSAQAFTHLKAKGEIPEVAFMK
As for B3, the Total reads like this: under setting [7], 2; under setting [5], 1. Besides, the Unique under setting [8] is 2 and the Unique under setting [6] came out at 1.

B4: HNRNPM (protein, UniProt P52272 2-730, looked up)
Heterogeneous nuclear …: AAGVEAAAEVAATEIKMEEESGAPGVPSGNGAPGPKGEGERPAQNEKRKEKNIKRGGNRFEPYANPTKRYRAFITNIPFDVKWQSLKDLVKEKVGEVTYVELLMDAEGKSRGCAVVEFKMEESMKKAAEVLNKHSLSGRPLKVKEDPDGEHARRAMQKVMATTGGMGMGPGGPGMITIPPSILNNPNIPNEIIHALQAGRLGSTVFVANLDYKVGWKKLKEVFSMAGVVVRADILEDKDGKSRGIGTVTFEQSIEAVQAISMFNGQLLFDRPMHVKMDERALPKGDFFPPERPQQLPHGLGGIGMGLGPGGQPIDANHLNKGIGMGNIGPAGMGMEGIGFGINKMGGMEGPFGGGMENMGRFGSGMNMGRINEILSNALKRGEIIAKQGGGGGGGSVPGIERMGPGIDRLGGAGMERMGAGLGHGMDRVGSEIERMGLVMDRMGSVERMGSGIERMGPLGLDHMASSIERMGQTMERIGSGVERMGAGMGFGLERMAAPIDRVGQTIERMGSGVERMGPAIERMGLSMERMVPAGMGAGLERMGPVMDRMATGLERMGANNLERMGLERMGANSLERMGLERMGANSLERMGPAMGPALGAGIERMGLAMGGGGGASFDRAIEMERGNFGGSFAGSFGGAGGHAPGVARKACQIFVRNLPFDFTWKMLKDKFNECGHVLYADIKMENGKSKGCGVVKFESPEVAERACRMMNGMKLSGREIDVRIDRNA
As to B4, the Total came to 25 under setting [1], 2 under setting [3] and 19 under setting [5]. Further, the Unique is on record as 25 under setting [2], 2 under setting [4] and 14 under setting [6].

B5: MED23 (protein, UniProt Q9ULK4 1-1368, looked up)
Mediator of RNA polymerase II …: METQLQSIFEEVVKTEVIEEAFPGMFMDTPEDEKTKLISCLGAFRQFWGGLSQESHEQCIQWIVKFIHGQHSPKRISFLYDCLAMAVETGLLPPRLVCESLINSDTLEWERTQLWALTFKLVRKIIGGVDYKGVRDLLKVILEKILTIPNTVSSAVVQQLLAAREVIAYILERNACLLPAYFAVTEIRKLYPEGKLPHWLLGNLVSDFVDTFRPTARINSICGRCSLLPVVNNSGAICNSWKLDPATLRFPLKGLLPYDKDLFEPQTALLRYVLEQPYSRDMVCNMLGLNKQHKQRCPVLEDQLVDLVVYAMERSETEEKFDDGGTSQLLWQHLSSQLIFFVLFQFASFPHMVLSLHQKLAGRGLIKGRDHLMWVLLQFISGSIQKNALADFLPVMKLFDLLYPEKEYIPVPDINKPQSTHAFAMTCIWIHLNRKAQNDNSKLQIPIPHSLRLHHEFLQQSLRNKSLQMNDYKIALLCNAYSTNSECFTLPMGALVETIYGNGIMRIPLPGTNCMASGSITPLPMNLLDSLTVHAKMSLIHSIATRVIKLAHAKSSVALAPALVETYSRLLVYMEIESLGIKGFISQLLPTVFKSHAWGILHTLLEMFSYRMHHIQPHYRVQLLSHLHTLAAVAQTNQNQLHLCVESTALRLITALGSSEVQPQFTRFLSDPKTVLSAESEELNRALILTLARATHVTDFFTGSDSIQGTWCKDILQTIMSFTPHNWASHTLSCFPGPLQAFFKQNNVPQESRFNLKKNVEEEYRKWKSMSNENDIITHFSMQGSPPLFLCLLWKMLLETDHINQIGYRVLERIGARALVAHVRTFADFLVYEFSTSAGGQQLNKCIEILNDMVWKYNIVTLDRLILCLAMRSHEGNEAQVCYFIIQLLLLKPNDFRNRVSDFVKENSPEHWLQNDWHTKHMNYHKKYPEKLYFEGLAEQVDPPVQIQSPYLPIYFGNVCLRFLPVFDIVIHRFLELLPVSKSLETLLDHLGGLYKFHDRPVTYLYNTLHYYEMHLRDRAFLKRKLVHAIIGSLKDNRPQGWCLSDTYLKCAMNAREENPWVPDDTYYCRLIGRLVDTMAGKSPGPFPNCDWRFNEFPNPAAHALHVTCVELMALAVSGKEVGNALLNVVLKSQPLVPRENITAWMNAIGLIITALPEPYWIVLHDRIVSVISSPSLTSETEWVGYPFRLFDFTACHQSYSEMSCSYTLALAHAVWHHSSIGQLSLIPKFLTEVLLPIVKTEFQLLYVYHLVGPFLQRFQQERTRCMIEIGVAFYDMLLNVDQCSTHLNYMDPICDFLYHMKYMFTGDSVKEQVEKIICNLKPALKLRLRFITHISKMEPAAVPPQAMNSGSPAPQSNQVPVSLPVTQ
Regarding B5, under setting [5], the Total worked out at 1. The Unique under setting [6] is 1.
